# In the supplement of paper PMC10973195:
# ± gives the standard deviation of the averaged measurements. Some of the results follow. Values are raw readings; no control value is given beside them.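 A neuron, microglia and astrocyte co-culture models inflammatory neurodegeneration: bacterial LPS drives microglia-dependent neuron loss. Each compound was tested against DMSO vehicle wells on the same plates; BAY61-3606, a SYK inhibitor, was the reference neuroprotective control.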
# System: rat primary cerebellar neuron-glia coculture
# Assay: live neuron count (NeuO+) per image field (cells per field); higher = more surviving neurons
# Settings: LPS 0 ng/mL; 1 µM; treatment time 3 days
# Experimental: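 Primary rat (P3-7) cerebellar neuron-glia cocultures in 384-well plates were treated at DIV7 with 1 uM compound, then with or without 100 ng/mL LPS 30 min later, for 3 days. At DIV10 live cells were stained with Hoechst 33342, NeuO (live neurons), IB4-AF594 (microglia) and DRAQ7 (necrotic cells) and imaged at 10x (4 fields per well, IN Cell Analyzer 6000). Cells were classified with Cellpose/CellProfiler plus a Random Trees classifier. Values are per-well mean counts per image field (raw, not min-max normalised) and the median microglial FormFactor per image. Three technical replicates per repeat across 4 biological repeats; DMSO and BAY61-3606 serve as controls.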
row,SMILES,live neuron count
1,Cc1[nH]c(/C=C2\C(=O)Nc3ccc(S(=O)(=O)N(C)c4cccc(Cl)c4)cc32)c(C)c1C(=O)N1CCN(C)CC1,2780 ± 410
2,O=C(/C=C/N1C[C@H]2C[C@@H]1CN2c1ccccn1)c1ccccc1O,2470 ± 330
3,CO/C(O)=C1\C(C)=NC(C)=C(C(=O)O[C@H]2CCN(Cc3ccccc3)C2)[C@H]1c1cccc([N+](=O)[O-])c1,903 ± 420
4,COc1cc(C(=O)NS(=O)(=O)c2ccccc2C)ccc1Cc1cn(C)c2ccc(NC(=O)OC3CCCC3)cc12,3020 ± 460
5,O=C(Nc1cccc2c(=O)cc(-c3nnn[nH]3)oc12)c1ccc(OCCCCc2ccccc2)cc1,2650 ± 390
6,COc1ccc(C(=O)C(=O)c2ccc(OC)cc2)cc1,2660 ± 380
7,COc1cc2c(NC3CCN(C(C)C)CC3)nc(C3CCCCC3)nc2cc1OCCCN1CCCC1,2460 ± 440
8,CCOP(=O)(OCC)C(=Cc1cc(C(C)(C)C)c(O)c(C(C)(C)C)c1)P(=O)(OCC)OCC,2500 ± 420
9,CCCCc1oc2ccccc2c1C(=O)c1cc(I)c(OCCN(CC)CC)c(I)c1,2240 ± 600
10,C[C@]12C=CC(=O)C=C1CC[C@H]1[C@@H]3C[C@@H](O)[C@](O)(C(=O)CO)[C@@]3(C)C[C@H](O)[C@@]12F,2940 ± 370
11,O=C(C1CC1)N1CC[C@@H](Cc2n[nH]c(=O)n2-c2ccc(-c3ccc4occc4c3)cc2)C1,2650 ± 480
12,Cc1nc(NC(=O)N2CCC[C@H]2C(N)=O)sc1-c1ccnc(C(C)(C)C(F)(F)F)c1,2090 ± 340
13,COc1cc2ncnc(Nc3ccc(Oc4ccccc4)cc3)c2cc1OC,2610 ± 480
14,CCCC(=O)C1CCN(c2ncnc3c2CN(C(=O)c2ccc(-c4ccccc4)cc2)CC3)CC1,2480 ± 580
15,COC(=O)C1=C(C)NC(C)=C(C(=O)OCCN(C)Cc2ccccc2)C1c1cccc([N+](=O)[O-])c1 (stereo not given),956 ± 370
16,Nc1ccccc1NC(=O)c1ccc(CNC(=O)OCc2cccnc2)cc1,1680 ± 660
17,Cc1cncn1CCCn1c(=S)[nH]c2ccccc2c1=O,2720 ± 490
18,Cn1nc(-c2ccccn2)nc2c(=O)n(C)c(=O)nc1-2,2490 ± 410
19,CCCC[n+]1c(/C=C/c2ccc(N(C)C)cc2)sc2ccccc21,458 ± 390
20,COc1ccc(N2CCOCC2)c2sc(NC(=O)N3CCC(C)(O)CC3)nc12,2480 ± 750

# Same assay, conditions: LPS 100 ng/mL; 1 µM; treatment time 3 days
row,SMILES,live neuron count
1,Cc1[nH]c(/C=C2\C(=O)Nc3ccc(S(=O)(=O)N(C)c4cccc(Cl)c4)cc32)c(C)c1C(=O)N1CCN(C)CC1,385 ± 410
2,O=C(/C=C/N1C[C@H]2C[C@@H]1CN2c1ccccn1)c1ccccc1O,526 ± 510
3,CO/C(O)=C1\C(C)=NC(C)=C(C(=O)O[C@H]2CCN(Cc3ccccc3)C2)[C@H]1c1cccc([N+](=O)[O-])c1,220 ± 130
4,COc1cc(C(=O)NS(=O)(=O)c2ccccc2C)ccc1Cc1cn(C)c2ccc(NC(=O)OC3CCCC3)cc12,3180 ± 420
5,O=C(Nc1cccc2c(=O)cc(-c3nnn[nH]3)oc12)c1ccc(OCCCCc2ccccc2)cc1,355 ± 540
6,COc1ccc(C(=O)C(=O)c2ccc(OC)cc2)cc1,612 ± 900
7,COc1cc2c(NC3CCN(C(C)C)CC3)nc(C3CCCCC3)nc2cc1OCCCN1CCCC1,323 ± 290
8,CCOP(=O)(OCC)C(=Cc1cc(C(C)(C)C)c(O)c(C(C)(C)C)c1)P(=O)(OCC)OCC,474 ± 750
9,CCCCc1oc2ccccc2c1C(=O)c1cc(I)c(OCCN(CC)CC)c(I)c1,218 ± 220
10,C[C@]12C=CC(=O)C=C1CC[C@H]1[C@@H]3C[C@@H](O)[C@](O)(C(=O)CO)[C@@]3(C)C[C@H](O)[C@@]12F,3310 ± 350
11,O=C(C1CC1)N1CC[C@@H](Cc2n[nH]c(=O)n2-c2ccc(-c3ccc4occc4c3)cc2)C1,301 ± 240
12,Cc1nc(NC(=O)N2CCC[C@H]2C(N)=O)sc1-c1ccnc(C(C)(C)C(F)(F)F)c1,481 ± 400
13,COc1cc2ncnc(Nc3ccc(Oc4ccccc4)cc3)c2cc1OC,486 ± 470
14,CCCC(=O)C1CCN(c2ncnc3c2CN(C(=O)c2ccc(-c4ccccc4)cc2)CC3)CC1,896 ± 540
15,COC(=O)C1=C(C)NC(C)=C(C(=O)OCCN(C)Cc2ccccc2)C1c1cccc([N+](=O)[O-])c1 (stereo not given),291 ± 320
16,Nc1ccccc1NC(=O)c1ccc(CNC(=O)OCc2cccnc2)cc1,61.5 ± 49
17,Cc1cncn1CCCn1c(=S)[nH]c2ccccc2c1=O,343 ± 490
18,Cn1nc(-c2ccccn2)nc2c(=O)n(C)c(=O)nc1-2,158 ± 210
19,CCCC[n+]1c(/C=C/c2ccc(N(C)C)cc2)sc2ccccc21,643 ± 220
20,COc1ccc(N2CCOCC2)c2sc(NC(=O)N3CCC(C)(O)CC3)nc12,543 ± 540
